Measurements reported in patent US20100240865 (published 2010).

Test: general procedure: Fmoc solid-phase peptide synthesis; Thr(t-Bu)-ol-2-Cl-Trt resin; 2-Cl-Trt resin; Rink amide resin; TBTU/HOBt with diisopropylethylamine or collidine
Settings: whole synthesis, RP-HPLC, 5μ C18 column, 0.05% TFA in acetonitrile/water, 1 ml/min, scale of the general procedure 100 g resin (0.7 mmol/g), 50 g resin, 30 g resin

D-Phe-Cys-Phe-D-Trp-Lys-Thr-Cys-Thr-ol
final HPLC purity (trifluoroacetate, exchanged to acetate for desmopressin and calcitonin, one disulfide bridge, sequence written open): >98.5%

Mpa-Tyr-Phe-Gln-Asn-Cys(Acm)-Pro-D-Arg-Gly-NH2
final HPLC purity (acetate): >99.0%

[Mpa][hArg]GDWPC(Acm)-NH2
final HPLC purity (trifluoroacetate, exchanged to acetate for desmopressin and calcitonin): >98.5%

Square brackets hold non-standard residues; d marks the D form. * marks the point of attachment. hArg = N=C(N)NCCCC[C@H](N)C(=O)O; Acm = CC(=O)NC*; Mpa = O=C(O)CCS
